Source: the supplement of paper PMC4604168 (melanoma cell lines)
The list shows a part of the results. Single values are uncertain, as repeats are few or missing.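 Cells were imaged in 1,536-well plates, and nuclei stained with an antibody against cleaved PARP were counted against all DNA-stained nuclei to give the apoptosis fraction. Screening doses were chosen to leave most cells alive, and resting and induced cleaved-PARP levels differ strongly between cell lines.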

These compounds were tested on WM1745 (assay: cleaved PARP positive nuclei fraction relative to DMSO control; melanoma cells; higher = more apoptosis). Settings: library dose: low library concentration; 72 h.

Row | Compound | cleaved PARP positive nuclei fraction [%]
1 | CC[C@]1(O)C[C@H]2CN(CCc3c([nH]c4ccccc34)[C@@](C(=O)OC)(c3cc4c(cc3OC)N(C=O)[C@H]3[C@@](O)(C(=O)OC)[C@H](OC(C)=O)[C@]5(CC)C=CCN6CC[C@]43[C@@H]65)C2)C1 [vincristine] + CS(=O)(=O)c1ccc(C(=O)Nc2ccc(Cl)c(-c3ccccn3)c2)c(Cl)c1 [vismodegib] (first compound 0.0001 µM, partner dose 1 µM) | 105
2 | O=c1[nH]nc(Sc2ncc([N+](=O)[O-])s2)n1-c1ccc2c(c1)OCCO2 + Nc1ccn([C@@H]2O[C@H](CO)[C@@H](O)C2(F)F)c(=O)n1 [gemcitabine] (first compound 0.2 µM, partner dose 0.0004 µM) | 125
3 | CCCCCCCCCCCCCCCCCCOP(=O)([O-])OC1CC[N+](C)(C)CC1 [Perifosine] + Cc1cc(Nc2cc(N3CCN(C)CC3)nc(/C=C/c3ccccc3)n2)n[nH]1 [ENMD2076] (first compound 0.4 µM, partner dose 0.04 µM) | 299
4 | O=C(Nc1cc(C(F)(F)F)cc(C(F)(F)F)c1)c1cc(Cl)ccc1O + Cn1cnc2c(F)c(Nc3ccc(Br)cc3Cl)c(C(=O)NOCCO)cc21 [selumetinib] (first compound 0.016 µM, partner dose 0.015 µM) | 83.9
5 | Cc1ccc(Nc2nccc(N(C)c3ccc4c(C)n(C)nc4c3)n2)cc1S(N)(=O)=O [Pazopanib] + CC(=O)c1c(C)c2cnc(Nc3ccc(N4CCNCC4)cn3)nc2n(C2CCCC2)c1=O [palbociclib] (first compound 0.4 µM, partner dose 0.04 µM) | 111
